Values from PubChem BioAssay AID1259425 (University of Nebraska Medical Center, 2018).
The deposit covers about 14,000 reagents; this is an unselected part. Further read-outs or replicates are left out here. The record does not give: the time to read-out.

Purpose: 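Compare each knockdown with KSR1 silencing using changes in marker transcripts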 (primary screen)
Cell system: HCT116 human colon cancer cells
Reagent: siRNA pool against human genes, 50 nM siRNA
Read-out: 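After 50 nM siRNA pool, branched-DNA assay measures six marker transcripts per well, minus blank, normalised to the geometric mean of two housekeeping transcripts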
Reading the numbers: BNIP3L mRNA: higher = more BNIP3L transcript after knockdown; NDRG1 mRNA: higher = more NDRG1 transcript after knockdown; BNIP3 mRNA: higher = more BNIP3 transcript after knockdown

| BNIP3L mRNA, set 1 | NDRG1 mRNA, set 1 | BNIP3 mRNA, set 1 | gene symbol |
| --- | --- | --- | --- |
| 0.102 | 0.375 | 0.437 | RBM10 |
| 0.286 | 0.365 | 0.468 | MPND |
| 0.0809 | 0.203 | 0.351 | TCF12 |
| 0.111 | 0.247 | 0.297 | TMC7 |
| 0.0776 | 0.134 | 0.435 | FAM156A |
| 0.0853 | 0.315 | 0.188 | VPREB3 |
| 0.107 | 0.0935 | 0.365 | DFFB |
| 0.123 | 0.0599 | 0.587 | MYC |
| 0.13 | 0.196 | 0.231 | TMEM234 |
| 0.0824 | 0.393 | 0.347 | PLPP7 |
| 0.269 | 1.25 | 0.736 | PCF11 |
| 0.119 | 0.0898 | 0.301 | DYNC1LI1 |
| 0.0746 | 0.199 | 0.222 | RNASEL |
| 0.0556 | 0.278 | 0.307 | HLA-DPB2 |
| 0.156 | 0.0775 | 0.205 | HFE |
| 0.135 | 0.321 | 0.389 | FADS3 |
| 0.17 | 0.157 | 0.247 | TNPO1 |
| 0.0874 | 0.208 | 0.142 | PGR |
| 0.0348 | 0.0717 | 0.248 | THRB |
| 0.148 | 0.287 | 0.263 | PKP1 |

An excerpt from above, limited to “NDRG1 mRNA, set 1”:
MPND	0.365
TCF12	0.203
TMC7	0.247
